# Source: patent US20040038861A1, “Methods and compositions for normalizing lipid levels in mammalian tissues” (priority 2001, published 2004)
# Not every detail of the peptide structures is certain; ends, links or a residue may be inferred. Where no end group is shown, it is not given here.
# Tested on: soleus muscle
# Assay: Glucose transport (2-deoxy-D-glucose uptake) in incubated soleus muscle strips
# Type: cell-based, rat
# Details: antagonist 1 μM and 10 μM; without antagonist 19.5±3.6
# Experimental: Soleus muscle preparation. All experiments were performed according to protocols approved by the Institutional Animal Ethics Committee. 5-6 week-old male Wistar rats (160 g) were kept on a 12:12-h light/dark cycle, and fed and watered ad libitum. Animals were anaesthetised with 50 mg/kg Nembutal (pentobarbitone sodium), then sacrificed by cervical dislocation. Soleus muscles were dissected under oxygenated KHB (118 mM NaCl, 4.75 mM KCl, 1.2 mM MgSO4, 24.8 mM NaHCO3, 1.2 mM KH2PO4, 2.54 mM CaCl2, 10 mM glucose, pH 7.4) and teased into halves, then incubated as described below.
# Determination of rates of glucose transport in incubated soleus muscle strips. 4-5 muscle strips were added to each flask, which contained 10 ml DMEM. […] Scintillation fluid (4 ml) was added to each vial, and samples counted in a Beckman liquid scintillation spectrometer, preset to count ^14C and ^3H channels simultaneously. The amount of each isotope present in the samples was determined and used to calculate the extracellular space and the intracellular concentration of [^3H]DOG. The accumulation of intracellular [^3H]DOG, a measure of muscle glucose uptake, was calculated by subtracting the concentration of [^3H]DOG in the extracellular space from the corresponding total muscle [^3H]DOG]; extracellular [^3H]DOG was quantified by measuring the muscle concentration of [^14C]sorbitol. […]
substance,measurement,value
"VTHRLAGLLSRSGGVVKDNFVPTNVGSEAF-NH2 [^8,37CGRP, ^8,37rat CGRP-1]",glucose uptake in presence of amylin (10 nM) and insulin (23.7 nM) plus antagonist,30.4±3.0 nmol/g dry-wt muscle/min
